Experimental data published in publication PMC12670160, “A drug-repurposing screen of FDA- and EMA-approved drugs identifies two NF-κB inhibitors active against eumycetoma” (Journal of Antimicrobial Chemotherapy, 2025).
Structures can show the parent of a compound that is named as a salt. Hit rate of the full screen: of about 5,300 compounds, about 130 (2.5%) showed an effect of 50% or more. The list shows a part of the results.

Test system: M. mycetomatis strain mm55
Conditions: primary screen, metabolic activity vs growth control; 96 h, 2 µM; inhibitor

| SMILES | % viability [%] |
| --- | --- |
| COc1ccc2c(c1)N(C[C@H](C)CN(C)C)c1ccccc1S2 [ONC0005616, levomepromazine] | 72.59 |
| COC(=O)c1ccccc1O [ONC0003750, methylsalicylate] | 102.4 |
| C[C@@H]1CN([C@H]2CC[C@](C#N)(c3ccc(F)cc3)CC2)CC[C@]1(C(=O)O)c1ccccc1 [ONC0002918, levocabastine] | 70.8 |
| O=C(O)CC[C@H]1CC[C@@](c2cc(F)ccc2F)(S(=O)(=O)c2ccc(Cl)cc2)CC1 [ONC0005079, mk0752] | 51.35 |
| Cc1nnc(-c2ccc3occ(-c4ccc([S+](C)[O-])cc4)c3c2)o1 (centres unmarked) [ONC0000062, tcs2002] | 113.4 |
| COc1ccccc1N1CCN(CC(O)COc2cccc3ccccc23)CC1 (centres unmarked) [ONC0005382, naftopidil] | 131.2 |
| CN1CCCC(CC2c3ccccc3Sc3ccccc32)C1 (centres unmarked) [ONC0002318, metixene] | 53.15 |
| CN1CCC(=C2c3ccccc3CC(=O)c3sccc32)CC1 [ONC0003423, ketotifen fumarate] | 76.67 |
| CCN1C(=O)NC(c2ccccc2)C1=O (centres unmarked) [ONC0003653, ethotoin] | 75.36 |
| Cn1c(=O)cnn(CCCCN2CCN(c3ncccn3)CC2)c1=O [ONC0001766, eptapirone] | 90.7 |
| O=c1[nH]cnc2c([C@@H]3N[C@H](CO)[C@@H](O)[C@H]3O)c[nH]c12 [ONC0001813, forodesine hydrochloride] | 95.12 |
| COc1ccc(CCNCc2ccc(OCc3ccc(Cl)nc3)c(OC)c2)cc1OC [ONC0003066, sbe13] | 68.66 |
| CO[C@@H]1COCC[C@@H]1N[C@@H]1CC[C@@](C(=O)N2CCc3ncc(C(F)(F)F)cc3C2)(C(C)C)C1 [ONC0002204, mk0812 succinate] | 88.14 |
| CC(C)(C)C(=O)OCOP(=O)(COCCn1cnc2c(N)ncnc21)OCOC(=O)C(C)(C)C [ONC0004847, adefovir dipivoxil preveon hepsera] | 126.5 |
| CCOc1ccc(Cc2cc([C@@H]3O[C@H](SC)[C@@H](O)[C@H](O)[C@H]3O)ccc2Cl)cc1 [ONC0001906, sotagliflozin] | 81.25 |
| N#C/C(=C\c1ccc(O)c(O)c1)C(N)=O [ONC0003569, tyrphostinag99] | 115.4 |
| Cc1ccc(NC(=O)C(C)C)cc1C1CCN(Cc2ccc(Oc3ccc(F)c(F)c3)cc2)CC1 [ONC0000242, snap94847] | 62.1 |

Ordered by count of non-hydrogen atoms (rising): three of the compounds above.

| SMILES | % viability [%] |
| --- | --- |
| COc1ccc(CCNCc2ccc(OCc3ccc(Cl)nc3)c(OC)c2)cc1OC [ONC0003066, sbe13] | 68.66 |
| CO[C@@H]1COCC[C@@H]1N[C@@H]1CC[C@@](C(=O)N2CCc3ncc(C(F)(F)F)cc3C2)(C(C)C)C1 [ONC0002204, mk0812 succinate] | 88.14 |
| CC(C)(C)C(=O)OCOP(=O)(COCCn1cnc2c(N)ncnc21)OCOC(=O)C(C)(C)C [ONC0004847, adefovir dipivoxil preveon hepsera] | 126.5 |
